Laboratory results: PubChem BioAssay AID743454 (Peter MacCallum Cancer Centre, 2014)
The whole screen tested about 18,000 reagents; shown is a part drawn at random. 450 of all reagents (2.5%) were called active. 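Single biological run; no consistent viability z cut-off exists, so the class columns, not z-scores, define the calls.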

Purpose: 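Search for knock-downs that restore vorinostat killing in resistant colon cancer cells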 (primary screen)
Cell system: human HCT116-VR colon cancer cells, selected for vorinostat resistance
Reagent: siRNA pool against human genes, 40 nM siRNA pool
Time to read-out: vorinostat for 24 h, read-out about 72 h after transfection
Treatment: vorinostat at 2.5 µM final
Read-out: 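Two measures, CellTiter-Fluor viability and luminescent caspase 3/7 activity, each as fold change against same-plate mock wells, mean of duplicates, then screen-wide robust z-score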
Direction: viability robust z-score: higher = more viable cells than screen typical; caspase robust z-score: higher = more caspase 3/7 activity than screen typical
Rule for the call: 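a knock-down is a hit when classed RV1 or RV2 for lowered viability, or CA1 or CA2 for caspase activation; those lethal without drug were dropped; hits were retested singly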

| target gene | viability hit class | caspase hit class | viability robust z-score | caspase robust z-score | outcome |
| --- | --- | --- | --- | --- | --- |
| MCUB | no change | no change | 0.59 | -0.56 | inactive |
| CCDC110 (coiled-coil domain containing 110) | no change | no change | 1.72 | -0.34 | inactive |
| ITGB1BP1 (integrin subunit beta 1 binding protein 1) | no change | no change | -0.64 | -1.15 | inactive |
| RPL36A (ribosomal protein L36a) | no change | no change | -4.5 | -0.6 | inactive |
| ZBTB21 (zinc finger and BTB domain containing 21) | no change | no change | 0.69 | -0.45 | inactive |
| MCAM (melanoma cell adhesion molecule) | no change | no change | 0.82 | 0.73 | inactive |
| PARP2 (poly(ADP-ribose) polymerase 2) | no change | no change | 2.28 | -0.44 | inactive |
| FOXO1 (forkhead box O1) | no change | no change | 1.73 | -0.48 | inactive |
| LHCGR (luteinizing hormone/choriogonadotropin receptor) | no change | no change | 0.08 | 1.72 | inactive |
| MBLAC1 (metallo-beta-lactamase domain containing 1) | no change | no change | -0.2 | -0.47 | inactive |
| IL18BP (interleukin 18 binding protein) | no change | no change | -0.7 | -0.2 | inactive |
| CNIH1 (cornichon family member 1) | no change | no change | -0.65 | -0.5 | inactive |
| LYPD6B (LY6/PLAUR domain containing 6B) | no change | no change | -0.02 | -0.42 | inactive |
| SERPINA5 (serpin family A member 5) | no change | no change | -0.82 | -0.38 | inactive |
| LINC01973 (long independently transcribed non-coding RNA 1973) | no change | no change | 1.72 | 0 | inactive |
| GJB1 (gap junction protein beta 1) | no change | no change | -1.37 | 2.97 | inactive |
| NIPSNAP2 (nipsnap homolog 2) | no change | no change | 0.15 | -0.47 | inactive |

Laid out differently: entries from further up.
PARP2 (poly(ADP-ribose) polymerase 2)
- viability hit class: no change
- caspase hit class: no change
- viability robust z-score: 2.28
- caspase robust z-score: -0.44
- outcome: inactive

FOXO1 (forkhead box O1)
- viability hit class: no change
- caspase hit class: no change
- viability robust z-score: 1.73
- caspase robust z-score: -0.48
- outcome: inactive

LHCGR (luteinizing hormone/choriogonadotropin receptor)
- viability hit class: no change
- caspase hit class: no change
- viability robust z-score: 0.08
- caspase robust z-score: 1.72
- outcome: inactive

MBLAC1 (metallo-beta-lactamase domain containing 1)
- viability hit class: no change
- caspase hit class: no change
- viability robust z-score: -0.2
- caspase robust z-score: -0.47
- outcome: inactive

IL18BP (interleukin 18 binding protein)
- viability hit class: no change
- caspase hit class: no change
- viability robust z-score: -0.7
- caspase robust z-score: -0.2
- outcome: inactive

Continued:
| target gene | viability hit class | caspase hit class | viability robust z-score | caspase robust z-score | outcome |
| --- | --- | --- | --- | --- | --- |
| CLPP | no change | no change | -0.22 | 2.01 | inactive |
| PCMTD1 | no change | no change | -0.31 | -0.8 | inactive |
| HTR3A (5-hydroxytryptamine receptor 3A) | no change | no change | -0.08 | -0.1 | inactive |
| HES5 (hes family bHLH transcription factor 5) | no change | no change | -0.86 | -0.34 | inactive |
| MDFIC (MyoD family inhibitor domain containing) | no change | no change | -0.94 | 0.3 | inactive |
| AVL9 (AVL9 cell migration associated) | no change | no change | -0.71 | 1.11 | inactive |
| ADD1 (adducin 1) | no change | no change | 0.4 | -0.3 | inactive |
| GPR75 (G protein-coupled receptor 75) | no change | no change | -1.26 | 1.38 | inactive |
| EIF4E3 (eukaryotic translation initiation factor 4E family member 3) | no change | no change | -0.32 | 1.1 | inactive |
| TMCC2 (transmembrane and coiled-coil domain family 2) | no change | no change | 1.34 | 2.72 | inactive |
| DNTTIP2 (deoxynucleotidyltransferase terminal interacting protein 2) | RV2 (reduced viability) | no change | -2.99 | -1.09 | active |
| TPM1 (tropomyosin 1) | no change | no change | -0.12 | -0.45 | inactive |
| H2BC13 (H2B clustered histone 13) | no change | no change | 0.82 | 0.72 | inactive |
| MAGEA9 (MAGE family member A9) | no change | no change | 0.42 | 0.04 | inactive |
| PARL (presenilin associated rhomboid like) | no change | no change | -1.53 | -1.07 | inactive |
| ST8SIA2 (ST8 alpha-N-acetyl-neuraminide alpha-2,8-sialyltransferase 2) | no change | no change | -1.84 | 1.37 | inactive |
| NCAPH (non-SMC condensin I complex subunit H) | no change | no change | 0.62 | 5.02 | inactive |
| SEMA6D (semaphorin 6D) | no change | no change | 0.44 | -0.93 | inactive |
| MSMB (microseminoprotein beta) | no change | no change | -0.29 | 2.68 | inactive |
| CLTB (clathrin light chain B) | no change | CA2 (caspase activation) | -1.36 | 5.9 | active |
| FRMD7 (FERM domain containing 7) | no change | no change | -0.86 | -0.38 | inactive |
| ERCC8 (ERCC excision repair 8, CSA ubiquitin ligase complex subunit) | no change | no change | -0.44 | 0.05 | inactive |
